# Assay results published in doi:10.1101/2022.11.07.515236 (bioRxiv, 2022).
# Molecular target: recombinant human TGFβ1 (human)
# Test: ITC
binder,measurement,value
recombinant mouse GDF3 (ligand) AAISVPKGFCRNFCHRHQLFINFQDLGWHKWVIAPKGFMANYCHGECPFSMTTYLNSSNYAFMQALMHMADPKVPKAVCVPTKLSPISMLYQDSDKNVILRHYEDMVVDECGCG,binding,binds

# No constants are given. Whether binding was seen depends on the method and setting. Binding calls can cover weak binding; strength is not graded here.
